Where “and” joins values, the source holds several entries; their conditions need not be identical. Identical values can stand only once. Further values from the same series stand in other lists.
System: U87 flank tumors
Experiment: U87 flank tumor growth, QST with or without IR
Type: in vivo, athymic nude mice
Conditions: individual mice
Experimental: We next examined whether QST treatment alone or in combination with IR would be effective in slowing tumor growth in a flank model of GBM (U87). Tumor-bearing mice receiving IR were treated with 2-Gy fractions on Monday, Wednesday, and Friday (MWF) 2 hours after dosing with either vehicle solution or QST (10 mg/kg), for a total dose of 6 Gy. Following completion of IR, mice continued to receive vehicle or QST until the tumors reached the maximum volume threshold (Figure 5C). […] The mean tumor volume in mice with combination treatment was approximately 4.5-fold less than that in vehicle-treated mice at study completion (Figure 5D). […]
Rad225XL irradiator (Precision X -Ray).
For flank implantations, cells were pre pared in a 1:1 ratio with 100 uL Matrigel (Corning […]
syringe fitted with a 26 -gauge needle. Mice were anesthetized with isoflurane in a plastic desiccator placed in an ex ternally vented fume hood. The U87 -Matrigel cell suspension was then subcutaneously injected into the flank of the mouse on the posterior/lateral aspect of the lower rib cage. Mice were monitored daily , and growth of flank tumor area was measured with a di gital caliper (ThermoFisher) twice a week. […]
Preparation of QST for In Vivo Use
For in vivo preparation, QST was dissolved in 50% polyethylene glycol (PEG) 300, 50% sterile water solution for 10 mg/kg dosing. The suspension was then sonicated for 10 minutes to allow the drug to completely dissolve. Finally, the pH of both the drug and the vehicle solutions was adjusted to 7.4 before intraperitoneal dosing. […]
In Vivo Irradiation Studies
Intracranial or flank tumor–bearing nude mice were sedated with gaseous isoflurane before
IR. On the first week of treatment, 2 hours after treatment with QST or vehicle, the mice were […]
treated with 2 Gy of ionizing radiation on MWF for a total 6 Gy (3 doses). […]
Implanted flank tumors were allowed to grow until the tumor size reached 100 mm3 volume. […] Tumor growth and treatment response were monitored by manually measuring the tumor area twice per week starting at 13 days after implantation. […]

Compound: Cn1cc(CNCC2CCN(c3ncc(C(=O)NO)cn3)CC2)c2ccccc21 [QST, quisinostat]
- flank tumor volume (Combo 10 mg/kg Qstat + 6 Gy IR, day 20 post injection): 58.08 mm^3 and 79.9875 mm^3 and 98.3125 mm^3 and 122.4 mm^3 and 165.584 mm^3 and 55.016 mm^3 and 92.4385 mm^3 and 193.027 mm^3
- flank tumor volume (Combo 10 mg/kg Qstat + 6 Gy IR, day 24 post injection): 95.506 mm^3 and 71.442 mm^3 and 69.12 mm^3 and 104.284 mm^3 and 196.463 mm^3 and 79.768 mm^3 and 119.382 mm^3 and 254.016 mm^3
- flank tumor volume (Quisinostat 10 mg/kg IP MWF, day 24 post injection): 438.746 mm^3 and 73.008 mm^3 and 88.872 mm^3 and 373.968 mm^3 and 61.364 mm^3 and 196.02 mm^3 and 112.5 mm^3 and 262.848 mm^3 and 491.102 mm^3 and 306.418 mm^3

From PMC10721329, “Quisinostat is a brain-penetrant radiosensitizer in glioblastoma” (JCI Insight, 2023)
